Our source for the binding values is publication doi:10.1101/2023.01.31.526464.

Chains of the proteins cited; added tags and fusions are not shown. Lines headed by an entry give the natural chain unless they say otherwise; changes in a name come on top.
UniProt O94822, whole entry: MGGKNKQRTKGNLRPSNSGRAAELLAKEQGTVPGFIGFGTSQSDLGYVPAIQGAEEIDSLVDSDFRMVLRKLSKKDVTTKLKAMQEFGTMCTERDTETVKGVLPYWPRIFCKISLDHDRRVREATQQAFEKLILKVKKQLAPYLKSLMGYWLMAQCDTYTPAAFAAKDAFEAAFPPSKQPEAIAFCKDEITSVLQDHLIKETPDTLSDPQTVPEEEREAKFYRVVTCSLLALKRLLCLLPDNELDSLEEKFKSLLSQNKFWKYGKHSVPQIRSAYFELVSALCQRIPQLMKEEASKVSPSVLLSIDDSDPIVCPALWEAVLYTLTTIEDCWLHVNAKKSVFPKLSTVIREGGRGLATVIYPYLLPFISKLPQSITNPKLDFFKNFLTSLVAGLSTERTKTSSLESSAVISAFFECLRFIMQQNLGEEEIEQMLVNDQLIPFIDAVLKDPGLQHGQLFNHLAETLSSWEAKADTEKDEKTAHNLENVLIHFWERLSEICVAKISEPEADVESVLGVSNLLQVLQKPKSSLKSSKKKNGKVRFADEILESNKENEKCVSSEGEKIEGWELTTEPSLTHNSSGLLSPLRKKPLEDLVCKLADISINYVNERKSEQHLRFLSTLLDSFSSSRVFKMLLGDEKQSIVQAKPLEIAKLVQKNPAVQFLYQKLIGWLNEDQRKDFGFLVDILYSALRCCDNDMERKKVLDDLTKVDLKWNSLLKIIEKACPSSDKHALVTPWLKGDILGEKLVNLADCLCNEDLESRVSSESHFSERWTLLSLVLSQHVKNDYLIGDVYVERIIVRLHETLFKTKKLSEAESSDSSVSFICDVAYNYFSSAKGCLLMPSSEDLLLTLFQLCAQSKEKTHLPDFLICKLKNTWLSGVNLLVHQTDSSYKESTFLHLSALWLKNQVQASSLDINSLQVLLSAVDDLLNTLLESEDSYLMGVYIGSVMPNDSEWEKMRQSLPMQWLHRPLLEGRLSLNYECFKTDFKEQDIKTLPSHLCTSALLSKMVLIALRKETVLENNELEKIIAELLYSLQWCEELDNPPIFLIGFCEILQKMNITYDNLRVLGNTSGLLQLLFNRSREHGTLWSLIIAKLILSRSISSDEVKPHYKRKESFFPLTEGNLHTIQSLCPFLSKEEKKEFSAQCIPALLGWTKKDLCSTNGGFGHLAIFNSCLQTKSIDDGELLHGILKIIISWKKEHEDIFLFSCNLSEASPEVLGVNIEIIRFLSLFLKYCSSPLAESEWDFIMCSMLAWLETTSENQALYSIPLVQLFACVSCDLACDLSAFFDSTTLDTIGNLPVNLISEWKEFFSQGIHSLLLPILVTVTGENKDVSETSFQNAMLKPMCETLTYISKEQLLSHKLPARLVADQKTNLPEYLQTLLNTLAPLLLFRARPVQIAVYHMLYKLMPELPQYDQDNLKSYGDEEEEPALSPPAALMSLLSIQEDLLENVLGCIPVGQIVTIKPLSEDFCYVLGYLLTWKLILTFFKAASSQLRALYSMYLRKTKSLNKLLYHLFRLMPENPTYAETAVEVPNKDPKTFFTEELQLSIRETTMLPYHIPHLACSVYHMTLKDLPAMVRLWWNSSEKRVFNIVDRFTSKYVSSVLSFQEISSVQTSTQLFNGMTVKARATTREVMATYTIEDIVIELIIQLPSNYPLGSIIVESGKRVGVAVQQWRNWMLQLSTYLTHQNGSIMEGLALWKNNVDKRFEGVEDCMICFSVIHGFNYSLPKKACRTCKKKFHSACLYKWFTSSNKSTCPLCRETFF

For test [1], the target named is FLAG-BPLF1^C61A (catalytic mutant) (Epstein-Barr virus) (UniProt P03186). Briefly: co-IP.
Test [2] shares this target. Briefly: co-IP. The source holds these as a separate data set.

Where two headings read alike, the source gives them in different places. No constants are given. Whether binding was seen depends on the method and setting. Binding seen in cells or lysates may run through a third protein. Some entries that bind do so weakly or less than the wild type.

Take “Listerin-1 (LTN1) (from UniProt O94822 1-1766)”: in test [1], the binding entry is “binds”.

B1: ZNF598 (protein, UniProt Q86UK7 1-904)
chain: MAAAGGAEGRRAALEAAAAAAPERGGGSCVLCCGDLEATALGRCDHPVCYRCSTKMRVLCEQRYCAVCREELRQVVFGKKLPAFATIPIHQLQHEKKYDIYFADGKVYALYRQLLQHECPRCPELPPFSLFGDLEQHMRRQHELFCCRLCLQHLQIFTYERKWYSRKDLARHRMQGDPDDTSHRGHPLCKFCDERYLDNDELLKHLRRDHYFCHFCDSDGAQDYYSDYAYLREHFREKHFLCEEGRCSTEQFTHAFRTEIDLKAHRTACHSRSRAEARQNRHIDLQFSYAPRHSRRNEGVVGGEDYEEVDRYSRQGRVARAGTRGAQQSRRGSWRYKREEEDREVAAAVRASVAAQQQEEARRSEDQEEGGRPKKEEAAARGPEDPRGPRRSPRTQGEGPGPKETSTNGPVSQEAFSVTGPAAPGCVGVPGALPPPSPKLKDEDFPSLSASTSSSCSTAATPGPVGLALPYAIPARGRSAFQEEDFPALVSSVPKPGTAPTSLVSAWNSSSSSKKVAQPPLSAQATGSGQPTRKAGKGSRGGRKGGPPFTQEEEEDGGPALQELLSTRPTGSVSSTLGLASIQPSKVGKKKKVGSEKPGTTLPQPPPATCPPGALQAPEAPASRAEGPVAVVVNGHTEGPAPARSAPKEPPGLPRPLGSFPCPTPQEDFPALGGPCPPRMPPPPGFSAVVLLKGTPPPPPPGLVPPISKPPPGFSGLLPSPHPACVPSPATTTTTKAPRLLPAPRAYLVPENFRERNLQLIQSIRDFLQSDEARFSEFKSHSGEFRQGLISAAQYYKSCRDLLGENFQKVFNELLVLLPDTAKQQELLSAHTDFCNREKPLSTKSKKNKKSAWQATTQQAGLDCRVCPTCQQVLAHGDASSHQALHAARDDDFPSLQAIARIIT
For B1, the binding result in test [2] is “binds”.
